{"source": "the supplement of paper PMC10077471", "note": "Whole data set: some 1,900 compounds, median “excess over highest single agent (ExcessHSA) synergy score, 6x6 matrix” near -83, cut for the lowest 2% near -370. The list shows a part of the results.", "data": [{"system": "NCI-H446", "test": "excess over highest single agent (ExcessHSA) synergy score, 6x6 matrix; higher = less synergy (more negative = stronger synergy)", "conditions": "72 h; CellTiter-Glo viability", "values": [{"smiles": "CC(C)(C#N)c1cc(Cn2cncn2)cc(C(C)(C)C#N)c1", "note": "+ Cc1sc2c(c1C)C(c1ccc(Cl)cc1)=N[C@@H](CC(=O)OC(C)(C)C)c1nnc(C)n1-2 [NCGC00250412-19]", "excess over highest single agent": -122}, {"smiles": "COc1cc2nccc(Oc3ccc(NC(=O)Nc4cc(C)on4)c(Cl)c3)c2cc1OC", "note": "+ Cc1sc2c(c1C)C(c1ccc(Cl)cc1)=N[C@@H](CC(=O)OC(C)(C)C)c1nnc(C)n1-2 [NCGC00250412-19]", "excess over highest single agent": -229}, {"smiles": "C[C@@H](O)[C@H]1C(=O)N2C(C(=O)O)=C(S[C@@H]3CN[C@H](CNS(N)(=O)=O)C3)[C@H](C)[C@H]12", "note": "+ Cc1sc2c(c1C)C(c1ccc(Cl)cc1)=N[C@@H](CC(=O)OC(C)(C)C)c1nnc(C)n1-2 [NCGC00250412-19]", "excess over highest single agent": -23.4}, {"smiles": "O=C(CCc1ccc(O)cc1)c1c(O)cc(O)cc1O", "note": "+ Cc1sc2c(c1C)C(c1ccc(Cl)cc1)=N[C@@H](CC(=O)OC(C)(C)C)c1nnc(C)n1-2 [NCGC00250412-19]", "excess over highest single agent": -121}, {"smiles": "CC[C@@H](C(N)=O)N1CCCC1=O", "note": "+ Cc1sc2c(c1C)C(c1ccc(Cl)cc1)=N[C@@H](CC(=O)OC(C)(C)C)c1nnc(C)n1-2 [NCGC00250412-19]", "excess over highest single agent": -95.6}, {"smiles": "NC(=O)c1cccc2cn(-c3ccc([C@@H]4CCCNC4)cc3)nc12", "note": "+ Cc1sc2c(c1C)C(c1ccc(Cl)cc1)=N[C@@H](CC(=O)OC(C)(C)C)c1nnc(C)n1-2 [NCGC00250412-19]", "excess over highest single agent": -230}, {"smiles": "O=C(O)CCCc1ccc(N(CCCl)CCCl)cc1", "note": "+ Cc1sc2c(c1C)C(c1ccc(Cl)cc1)=N[C@@H](CC(=O)OC(C)(C)C)c1nnc(C)n1-2 [NCGC00250412-19]", "excess over highest single agent": -72.8}, {"smiles": "CC(S)C(=O)NCC(=O)O", "note": "(stereo not drawn) + Cc1sc2c(c1C)C(c1ccc(Cl)cc1)=N[C@@H](CC(=O)OC(C)(C)C)c1nnc(C)n1-2 [NCGC00250412-19]", "excess over highest single agent": -113}, {"smiles": "CN1CCN(CCCN2c3ccccc3Sc3ccc(C(F)(F)F)cc32)CC1", "note": "+ Cc1sc2c(c1C)C(c1ccc(Cl)cc1)=N[C@@H](CC(=O)OC(C)(C)C)c1nnc(C)n1-2 [NCGC00250412-19]", "excess over highest single agent": 100}, {"smiles": "O=C(NCc1ccccc1)c1csc(Nc2ccncn2)n1", "note": "+ Cc1sc2c(c1C)C(c1ccc(Cl)cc1)=N[C@@H](CC(=O)OC(C)(C)C)c1nnc(C)n1-2 [NCGC00250412-19]", "excess over highest single agent": -205}, {"smiles": "C=CC(=O)Nc1cc2c(Nc3ccc(F)c(Cl)c3)ncnc2cc1OCCCN1CCOCC1", "note": "+ Cc1sc2c(c1C)C(c1ccc(Cl)cc1)=N[C@@H](CC(=O)OC(C)(C)C)c1nnc(C)n1-2 [NCGC00250412-19]", "excess over highest single agent": -120}, {"smiles": "CNC[C@H](O)c1ccc(O)c(O)c1", "note": "+ Cc1sc2c(c1C)C(c1ccc(Cl)cc1)=N[C@@H](CC(=O)OC(C)(C)C)c1nnc(C)n1-2 [NCGC00250412-19]", "excess over highest single agent": -14.4}, {"smiles": "O=C(O[C@H]1C[C@H]2CC[C@@H](C1)[N+]21CCCC1)C(O)(c1ccccc1)c1ccccc1", "note": "+ Cc1sc2c(c1C)C(c1ccc(Cl)cc1)=N[C@@H](CC(=O)OC(C)(C)C)c1nnc(C)n1-2 [NCGC00250412-19]", "excess over highest single agent": 17.8}, {"smiles": "CNC(=O)c1cc(Oc2ccc(NC(=O)Nc3ccc(Cl)c(C(F)(F)F)c3)c(F)c2)ccn1", "note": "+ Cc1sc2c(c1C)C(c1ccc(Cl)cc1)=N[C@@H](CC(=O)OC(C)(C)C)c1nnc(C)n1-2 [NCGC00250412-19]", "excess over highest single agent": -50.2}, {"smiles": "O=C(CO)N1CCC(c2n[nH]c(-c3ccc(Cl)cc3)c2-c2ccncn2)CC1", "note": "+ Cc1sc2c(c1C)C(c1ccc(Cl)cc1)=N[C@@H](CC(=O)OC(C)(C)C)c1nnc(C)n1-2 [NCGC00250412-19]", "excess over highest single agent": -161}, {"smiles": "COC(=O)[C@H](CCCN=C(N)N)NS(=O)(=O)c1ccc(C)cc1", "note": "+ Cc1sc2c(c1C)C(c1ccc(Cl)cc1)=N[C@@H](CC(=O)OC(C)(C)C)c1nnc(C)n1-2 [NCGC00250412-19]", "excess over highest single agent": 278}, {"smiles": "COc1ccc2c(c1OC)C(=O)O[C@@H]2[C@H]1c2c(cc3c(c2OC)OCO3)CCN1C", "note": "+ Cc1sc2c(c1C)C(c1ccc(Cl)cc1)=N[C@@H](CC(=O)OC(C)(C)C)c1nnc(C)n1-2 [NCGC00250412-19]", "excess over highest single agent": 323}, {"smiles": "Cc1ccc(C(=O)Nc2cccc(C(F)(F)F)c2)cc1-c1ccc2nc(NCCN3CCOCC3)ncc2c1", "note": "+ Cc1sc2c(c1C)C(c1ccc(Cl)cc1)=N[C@@H](CC(=O)OC(C)(C)C)c1nnc(C)n1-2 [NCGC00250412-19]", "excess over highest single agent": -140}, {"smiles": "O=C(Nc1ccccc1-c1cn2c(CN3CCNCC3)csc2n1)c1cnc2ccccc2n1", "note": "+ Cc1sc2c(c1C)C(c1ccc(Cl)cc1)=N[C@@H](CC(=O)OC(C)(C)C)c1nnc(C)n1-2 [NCGC00250412-19]", "excess over highest single agent": -244}, {"smiles": "CN(C)CCN(C)C(=O)c1ccc(NC(=O)Nc2ccc(-c3nc(N4CCOCC4)c4ccn(CC(F)(F)F)c4n3)cc2)cc1", "note": "+ Cc1sc2c(c1C)C(c1ccc(Cl)cc1)=N[C@@H](CC(=O)OC(C)(C)C)c1nnc(C)n1-2 [NCGC00250412-19]", "excess over highest single agent": -272}, {"smiles": "COc1ccc(C(=O)N2CCCC2=O)cc1", "note": "+ Cc1sc2c(c1C)C(c1ccc(Cl)cc1)=N[C@@H](CC(=O)OC(C)(C)C)c1nnc(C)n1-2 [NCGC00250412-19]", "excess over highest single agent": -35.2}, {"smiles": "O=C(C1CCCCC1)N1CC(=O)N2CCc3ccccc3C2C1", "note": "(stereo not drawn) + Cc1sc2c(c1C)C(c1ccc(Cl)cc1)=N[C@@H](CC(=O)OC(C)(C)C)c1nnc(C)n1-2 [NCGC00250412-19]", "excess over highest single agent": -130}, {"smiles": "C[C@@H]1CCO[C@H]2Cn3cc(C(=O)NCc4ccc(F)cc4F)c(=O)c(O)c3C(=O)N12", "note": "+ Cc1sc2c(c1C)C(c1ccc(Cl)cc1)=N[C@@H](CC(=O)OC(C)(C)C)c1nnc(C)n1-2 [NCGC00250412-19]", "excess over highest single agent": -50.1}, {"smiles": "C[C@]1(O)C[C@@H](c2nc(-c3ccc4ccc(-c5ccccc5)nc4c3)c3c(N)nccn32)C1", "note": "+ Cc1sc2c(c1C)C(c1ccc(Cl)cc1)=N[C@@H](CC(=O)OC(C)(C)C)c1nnc(C)n1-2 [NCGC00250412-19]", "excess over highest single agent": -125}, {"smiles": "CC(C)C[C@H](NC(=O)[C@@H](NC(=O)c1cccc(-c2ccccc2)n1)[C@@H](C)O)B(O)O", "note": "+ Cc1sc2c(c1C)C(c1ccc(Cl)cc1)=N[C@@H](CC(=O)OC(C)(C)C)c1nnc(C)n1-2 [NCGC00250412-19]", "excess over highest single agent": -166}, {"smiles": "CNC(=O)c1cc(Oc2ccc(NC(=O)Nc3cc(C(C)(C)C)nn3-c3ccc4ncccc4c3)c(F)c2)ccn1", "note": "+ Cc1sc2c(c1C)C(c1ccc(Cl)cc1)=N[C@@H](CC(=O)OC(C)(C)C)c1nnc(C)n1-2 [NCGC00250412-19]", "excess over highest single agent": -25.3}, {"smiles": "COc1ccc2c(c1)c(CC(=O)O)c(C)n2C(=O)c1ccc(Cl)cc1", "note": "+ Cc1sc2c(c1C)C(c1ccc(Cl)cc1)=N[C@@H](CC(=O)OC(C)(C)C)c1nnc(C)n1-2 [NCGC00250412-19]", "excess over highest single agent": -100}, {"smiles": "Nc1nc2ccc(OC(F)(F)F)cc2s1", "note": "+ Cc1sc2c(c1C)C(c1ccc(Cl)cc1)=N[C@@H](CC(=O)OC(C)(C)C)c1nnc(C)n1-2 [NCGC00250412-19]", "excess over highest single agent": -97.3}, {"smiles": "CCc1cc2c(cc1N1CCC(N3CCOCC3)CC1)C(C)(C)c1[nH]c3cc(C#N)ccc3c1C2=O", "note": "+ Cc1sc2c(c1C)C(c1ccc(Cl)cc1)=N[C@@H](CC(=O)OC(C)(C)C)c1nnc(C)n1-2 [NCGC00250412-19]", "excess over highest single agent": -95.1}, {"smiles": "CCOC(=O)O[C@]1(C(=O)OCCl)CC[C@H]2[C@@H]3CCC4=CC(=O)C=C[C@]4(C)[C@H]3[C@@H](O)C[C@@]21C", "note": "+ Cc1sc2c(c1C)C(c1ccc(Cl)cc1)=N[C@@H](CC(=O)OC(C)(C)C)c1nnc(C)n1-2 [NCGC00250412-19]", "excess over highest single agent": -33.5}, {"smiles": "CCc1c2c(nc3ccc(O)cc13)-c1cc3c(c(=O)n1C2)COC(=O)[C@]3(O)CC", "note": "+ Cc1sc2c(c1C)C(c1ccc(Cl)cc1)=N[C@@H](CC(=O)OC(C)(C)C)c1nnc(C)n1-2 [NCGC00250412-19]", "excess over highest single agent": -327}, {"smiles": "COc1ccc(/C=C\\c2cc(OC)c(OC)c(OC)c2)cc1NC(=O)[C@@H](N)CO", "note": "+ Cc1sc2c(c1C)C(c1ccc(Cl)cc1)=N[C@@H](CC(=O)OC(C)(C)C)c1nnc(C)n1-2 [NCGC00250412-19]", "excess over highest single agent": -142}, {"smiles": "Clc1cc(Cl)cc(CNc2ncncc2-c2ccc3c(c2)OCO3)c1", "note": "+ Cc1sc2c(c1C)C(c1ccc(Cl)cc1)=N[C@@H](CC(=O)OC(C)(C)C)c1nnc(C)n1-2 [NCGC00250412-19]", "excess over highest single agent": -88.1}, {"smiles": "CC(C)C(=O)Oc1ccc(CO)cc1[C@H](CCN(C(C)C)C(C)C)c1ccccc1", "note": "+ Cc1sc2c(c1C)C(c1ccc(Cl)cc1)=N[C@@H](CC(=O)OC(C)(C)C)c1nnc(C)n1-2 [NCGC00250412-19]", "excess over highest single agent": -26.9}, {"smiles": "Cc1ccc(NC(=O)c2ccc(CN3CCN(C)CC3)cc2)cc1Nc1nccc(-c2cccnc2)n1", "note": "+ Cc1sc2c(c1C)C(c1ccc(Cl)cc1)=N[C@@H](CC(=O)OC(C)(C)C)c1nnc(C)n1-2 [NCGC00250412-19]", "excess over highest single agent": -176}, {"smiles": "CN(C)/[N+]([O-])=N/Oc1cc(ON[N+](=O)N2CCN(C(=O)c3cc(Cc4n[nH]c(=O)c5ccccc45)ccc3F)CC2)c([N+](=O)[O-])cc1[N+](=O)[O-]", "note": "+ Cc1sc2c(c1C)C(c1ccc(Cl)cc1)=N[C@@H](CC(=O)OC(C)(C)C)c1nnc(C)n1-2 [NCGC00250412-19]", "excess over highest single agent": -94.6}, {"smiles": "Cc1c(C(=O)NN2CCCCC2)nn(-c2ccc(Cl)cc2Cl)c1-c1ccc(Cl)cc1", "note": "+ Cc1sc2c(c1C)C(c1ccc(Cl)cc1)=N[C@@H](CC(=O)OC(C)(C)C)c1nnc(C)n1-2 [NCGC00250412-19]", "excess over highest single agent": -88.9}, {"smiles": "N[C@@H](CSC(c1ccccc1)(c1ccccc1)c1ccccc1)C(=O)O", "note": "+ Cc1sc2c(c1C)C(c1ccc(Cl)cc1)=N[C@@H](CC(=O)OC(C)(C)C)c1nnc(C)n1-2 [NCGC00250412-19]", "excess over highest single agent": -96.2}]}]}
